Measurements reported in PubChem BioAssay AID1918953 (Molecular Pharmacology Branch, DTP, NCI, 2023).
Where “and” joins values, the source holds several entries; their conditions need not be identical. Identical values can stand only once. This continues a long series; more values of the same kind are listed elsewhere.

Tested on: MDA-MB-231 complex spheroid viability
Experiment: Anticancer human tumor MDA-MB-231/ATCC cell line growth inhibition;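 note: drug exposure lasted 7 days starting on day 3 of spheroid growth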
Details: stronger effect = lower value
Source text: Multicellular complex tumor spheroid response to LSD1 Inhibitor Iadademstat in combination with a variety of drugs and investigational agents in selected tumor cell lines
The current study was undertaken to assess response to LSD1 inhibitors in combination with standard-of-care drugs and investigational agents in solid tumor complex spheroid models as well as in the K-562 leukemia. Complex spheroids include a stromal component modeled by human endothelial cells (HUVEC) and fibroblasts modeled by human mesenchymal stem cells (MSCs). The concentration ranges selected for each drug and investigational agent were based upon clinically achievable concentrations if the clinical Cmax of the agent was known.
Compounds. The drugs and investigational agents used in this study are listed on Table 1. All of the agents used, including staurosporine (NSC755774) and gemcitabine (NSC613327), were obtained from the Developmental Therapeutics Program, NCI. FDA-approved anticancer drugs are available from the NCI at http://dtp.nci.nih.gov/branches/dscb/oncology_drugset_explanation.html. Drugs and investigational agents were >95% pure by proton nuclear magnetic resonance (NMR) and liquid chromatography/mass spectrometry (LC/MS). Stock solutions were prepared at 400x in DMSO, stored at -70 degrees C, and diluted in fresh medium prior to their use. The final concentration of DMSO in cell culture wells never exceeded 0.25% (v/v). The FDA-approved anticancer drug set is available from the Developmental Therapeutics Program at https://dtp.cancer.gov/organization/dscb/obtaining/available_plates.htm. All drugs and investigational agents were tested over a range starting from a high concentration at or near the clinical Cmax and decreasing in half-log increments. If the clinical Cmax for an agent had not been determined, the highest concentration tested was 10 microM.
Cell Lines. […]

Compound | viability, T/C (compound 0.1 µM) | viability, T/C (compound 0.316 µM) | viability, T/C (compound 10 µM)
NC1CC1c1ccc(-c2cccc(O)c2)cc1 (stereo not drawn) | 78.1% [middle of 25 runs] | – | –
NC1CCC(NC2CC2c2ccccc2)CC1 (stereo not drawn) | – | 103% [middle of 18 runs] | 69.6% and 64.6%
